Results: the supplement of paper PMC8426693
The other results are listed elsewhere or left out.

system: SARS-CoV-2 attenuator hairpin (att HP) RNA; test: NMR binding call after quantification (hit when 2 of 3 NMR criteria are met) (binary (1 = binding, 0 = not binding)); higher = binding; conditions: RNA concentration 10 µM; fragment concentration 200 µM; 293 K

SMILES | NMR binding call
CC(=O)Nc1ccc(NC(=O)CC(C)C)cc1 | 0
COc1ccc(CN2CCOCC2)cc1OC | 0
CC1CC1C(=O)NCCc1ccc(Cl)cc1 (stereo not given) | 0
CNC(=O)CN1CCNCC1 | 0
N#Cc1cccc(NC(=O)CCC2CCCC2)c1 | 0
COCc1nnc(N)s1 | 0
COc1cccc(C(=O)Nc2ccccc2F)c1 | 0
CC(C)C(=O)NCC1CCCNC1 (stereo not given) | 0
CC(=O)NCCc1ccc(S(N)(=O)=O)cc1 | 0
Cc1cc(C(=O)NC(C)C)nn1C | 0
CCCn1c(NC(=O)CC)nc2ccccc21 | 0
Cn1cc(Oc2ncncc2Cl)cn1 | 0
NCc1ccccc1OC(F)(F)F | 0
CC(=O)N1CCCC(C(N)=O)C1 (stereo not given) | 0
CS(=O)(=O)NC1(C(=O)O)CCCCC1 | 0
CCOc1ccc(NC(=O)c2cnccn2)cc1 | 0
Cn1nc(C(N)=O)c2ccccc21 | 0
O=C(NCC1CCCO1)N1CCOCC1 (stereo not given) | 0
CC(C)Nc1nc2ccccc2[nH]1 | 0
COc1cc(CN)cc(OC)c1OC.Cl | 0

SMILES | NMR binding call
COc1ccc(NC2=NCCN2)cc1 | 0
CC1CCOC1C(=O)Nc1cnns1 (stereo not given) | 0
CC(C)N(C)c1ncnc2c1cnn2C | 0
CCOC(=O)c1ccoc1 | 0
CC(NC1CC1)c1cccnc1 (stereo not given) | 0
COc1ccc(NC(=O)Nc2cccs2)cn1 | 0
Cc1nc(CN2CC(F)CC2CN)cs1 (stereo not given) | 0
c1csc(-c2nnc[nH]2)n1 | 0
Cn1nccc1C(=O)NCc1cccs1 | 0
CCNC(=O)Nc1cc(C)on1 | 0
Cc1nnc(CN2CCC=C(F)C2)s1 | 0
CC(=O)Nc1ccc(C)c2c1CCCN2 | 0
CC(=O)Nc1cnccc1C | 0
Cn1nnc(NC(=O)c2ccc(F)cc2)n1 | 0
CCOC(=O)C1CCN(c2cnccn2)CC1 | 0
CC(=O)N1CC2CCC1c1ccccc12 (stereo not given) | 0
Cc1ccccc1CC(N)=O | 0
CNC(=O)CNc1ncnc2sccc12 | 0
CC(O)CNCc1c(Cl)cccc1Cl (stereo not given) | 0
COc1cccc(C(N)CC(=O)O)c1 (stereo not given) | 0

system: SARS-CoV-2 frameshift pseudoknot (PK) RNA; test: as above; conditions: RNA concentration 10 µM; fragment concentration 200 µM; 293 K

SMILES | NMR binding call
CC(=O)Nc1ccc(NC(=O)CC(C)C)cc1 | 0
COc1ccc(CN2CCOCC2)cc1OC | 0
CC1CC1C(=O)NCCc1ccc(Cl)cc1 (stereo not given) | 0
CNC(=O)CN1CCNCC1 | 0
N#Cc1cccc(NC(=O)CCC2CCCC2)c1 | 0
COCc1nnc(N)s1 | 0
COc1cccc(C(=O)Nc2ccccc2F)c1 | 0
CC(C)C(=O)NCC1CCCNC1 (stereo not given) | 0
CC(=O)NCCc1ccc(S(N)(=O)=O)cc1 | 0
Cc1cc(C(=O)NC(C)C)nn1C | 0
CCCn1c(NC(=O)CC)nc2ccccc21 | 0
Cn1cc(Oc2ncncc2Cl)cn1 | 0
NCc1ccccc1OC(F)(F)F | 0
CC(=O)N1CCCC(C(N)=O)C1 (stereo not given) | 0
CS(=O)(=O)NC1(C(=O)O)CCCCC1 | 0
CCOc1ccc(NC(=O)c2cnccn2)cc1 | 0
Cn1nc(C(N)=O)c2ccccc21 | 0
O=C(NCC1CCCO1)N1CCOCC1 (stereo not given) | 0
CC(C)Nc1nc2ccccc2[nH]1 | 0
COc1cc(CN)cc(OC)c1OC.Cl | 0

SMILES | NMR binding call
COc1ccc(NC2=NCCN2)cc1 | 0
CC1CCOC1C(=O)Nc1cnns1 (stereo not given) | 0
CC(C)N(C)c1ncnc2c1cnn2C | 0
CCOC(=O)c1ccoc1 | 0
CC(NC1CC1)c1cccnc1 (stereo not given) | 0
COc1ccc(NC(=O)Nc2cccs2)cn1 | 0
Cc1nc(CN2CC(F)CC2CN)cs1 (stereo not given) | 0
c1csc(-c2nnc[nH]2)n1 | 0
Cn1nccc1C(=O)NCc1cccs1 | 0
CCNC(=O)Nc1cc(C)on1 | 0
Cc1nnc(CN2CCC=C(F)C2)s1 | 0
CC(=O)Nc1ccc(C)c2c1CCCN2 | 0
CC(=O)Nc1cnccc1C | 0
Cn1nnc(NC(=O)c2ccc(F)cc2)n1 | 0
CCOC(=O)C1CCN(c2cnccn2)CC1 | 0
CC(=O)N1CC2CCC1c1ccccc12 (stereo not given) | 0
Cc1ccccc1CC(N)=O | 0
CNC(=O)CNc1ncnc2sccc12 | 0
CC(O)CNCc1c(Cl)cccc1Cl (stereo not given) | 0
COc1cccc(C(N)CC(=O)O)c1 (stereo not given) | 0
